Test results: US20120282619A1
These are yes or no findings as the source states them, for the method shown. Some binding calls cover weakened binding; strength is not graded here.

Chains of the proteins cited; added tags and fusions are not shown. Residues count along the entry.
UniProt Q05397, residues 2-1052: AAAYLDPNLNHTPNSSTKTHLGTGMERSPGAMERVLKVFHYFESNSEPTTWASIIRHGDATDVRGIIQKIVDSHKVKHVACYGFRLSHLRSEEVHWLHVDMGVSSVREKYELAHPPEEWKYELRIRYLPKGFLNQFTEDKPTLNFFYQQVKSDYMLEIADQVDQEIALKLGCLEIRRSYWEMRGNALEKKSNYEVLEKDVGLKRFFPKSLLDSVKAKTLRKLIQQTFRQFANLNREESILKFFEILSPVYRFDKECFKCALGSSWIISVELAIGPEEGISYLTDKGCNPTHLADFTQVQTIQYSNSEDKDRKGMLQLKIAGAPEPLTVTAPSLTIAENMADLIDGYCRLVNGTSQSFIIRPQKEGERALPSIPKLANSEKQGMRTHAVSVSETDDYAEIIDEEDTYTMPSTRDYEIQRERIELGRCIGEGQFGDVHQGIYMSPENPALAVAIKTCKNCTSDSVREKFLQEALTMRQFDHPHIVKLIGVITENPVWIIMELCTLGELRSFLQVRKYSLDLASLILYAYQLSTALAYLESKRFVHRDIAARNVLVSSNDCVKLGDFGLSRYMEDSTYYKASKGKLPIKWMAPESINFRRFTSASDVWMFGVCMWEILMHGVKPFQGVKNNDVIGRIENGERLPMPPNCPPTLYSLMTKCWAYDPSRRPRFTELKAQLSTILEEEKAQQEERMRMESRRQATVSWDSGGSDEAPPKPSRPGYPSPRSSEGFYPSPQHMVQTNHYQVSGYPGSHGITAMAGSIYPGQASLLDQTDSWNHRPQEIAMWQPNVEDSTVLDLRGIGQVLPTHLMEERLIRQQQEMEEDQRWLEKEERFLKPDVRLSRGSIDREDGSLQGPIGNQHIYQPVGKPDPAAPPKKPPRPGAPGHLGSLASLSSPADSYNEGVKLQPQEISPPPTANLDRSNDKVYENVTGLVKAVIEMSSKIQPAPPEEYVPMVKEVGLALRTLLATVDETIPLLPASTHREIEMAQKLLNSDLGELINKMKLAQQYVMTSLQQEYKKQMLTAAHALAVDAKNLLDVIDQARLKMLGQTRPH

Columns and labels:
[1] = target: T1, GTPase regulator associated with FAK (GRAF) (human) (UniProt Q9UNA1); test: anti-FAK immunoprecipitation, Western blot (FIG. 9)
T1 sequence (looked up): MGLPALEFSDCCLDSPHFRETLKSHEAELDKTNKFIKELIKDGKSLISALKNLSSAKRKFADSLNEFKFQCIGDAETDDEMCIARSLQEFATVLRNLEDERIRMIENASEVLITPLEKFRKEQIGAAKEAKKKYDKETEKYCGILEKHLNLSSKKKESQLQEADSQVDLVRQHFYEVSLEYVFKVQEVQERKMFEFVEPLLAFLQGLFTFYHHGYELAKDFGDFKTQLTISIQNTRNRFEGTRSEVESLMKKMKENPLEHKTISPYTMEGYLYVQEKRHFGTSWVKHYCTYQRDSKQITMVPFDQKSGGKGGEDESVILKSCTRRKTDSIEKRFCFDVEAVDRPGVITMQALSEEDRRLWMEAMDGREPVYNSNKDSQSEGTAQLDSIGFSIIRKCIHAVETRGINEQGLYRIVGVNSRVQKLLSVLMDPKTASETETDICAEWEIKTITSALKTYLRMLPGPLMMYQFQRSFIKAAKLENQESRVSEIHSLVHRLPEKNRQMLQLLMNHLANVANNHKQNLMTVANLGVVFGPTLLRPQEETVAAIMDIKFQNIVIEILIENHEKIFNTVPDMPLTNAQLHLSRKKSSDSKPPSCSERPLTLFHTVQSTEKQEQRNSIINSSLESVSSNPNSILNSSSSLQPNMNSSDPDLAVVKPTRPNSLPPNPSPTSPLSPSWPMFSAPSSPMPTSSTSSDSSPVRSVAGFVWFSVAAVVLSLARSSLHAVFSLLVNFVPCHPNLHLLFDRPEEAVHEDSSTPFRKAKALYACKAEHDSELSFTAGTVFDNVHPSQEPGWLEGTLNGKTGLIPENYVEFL

p190RhoGAP (human) [2] = target: T2, p190RhoGAP (human) (UniProt Q9NRY4); test: as above
T2 sequence (looked up): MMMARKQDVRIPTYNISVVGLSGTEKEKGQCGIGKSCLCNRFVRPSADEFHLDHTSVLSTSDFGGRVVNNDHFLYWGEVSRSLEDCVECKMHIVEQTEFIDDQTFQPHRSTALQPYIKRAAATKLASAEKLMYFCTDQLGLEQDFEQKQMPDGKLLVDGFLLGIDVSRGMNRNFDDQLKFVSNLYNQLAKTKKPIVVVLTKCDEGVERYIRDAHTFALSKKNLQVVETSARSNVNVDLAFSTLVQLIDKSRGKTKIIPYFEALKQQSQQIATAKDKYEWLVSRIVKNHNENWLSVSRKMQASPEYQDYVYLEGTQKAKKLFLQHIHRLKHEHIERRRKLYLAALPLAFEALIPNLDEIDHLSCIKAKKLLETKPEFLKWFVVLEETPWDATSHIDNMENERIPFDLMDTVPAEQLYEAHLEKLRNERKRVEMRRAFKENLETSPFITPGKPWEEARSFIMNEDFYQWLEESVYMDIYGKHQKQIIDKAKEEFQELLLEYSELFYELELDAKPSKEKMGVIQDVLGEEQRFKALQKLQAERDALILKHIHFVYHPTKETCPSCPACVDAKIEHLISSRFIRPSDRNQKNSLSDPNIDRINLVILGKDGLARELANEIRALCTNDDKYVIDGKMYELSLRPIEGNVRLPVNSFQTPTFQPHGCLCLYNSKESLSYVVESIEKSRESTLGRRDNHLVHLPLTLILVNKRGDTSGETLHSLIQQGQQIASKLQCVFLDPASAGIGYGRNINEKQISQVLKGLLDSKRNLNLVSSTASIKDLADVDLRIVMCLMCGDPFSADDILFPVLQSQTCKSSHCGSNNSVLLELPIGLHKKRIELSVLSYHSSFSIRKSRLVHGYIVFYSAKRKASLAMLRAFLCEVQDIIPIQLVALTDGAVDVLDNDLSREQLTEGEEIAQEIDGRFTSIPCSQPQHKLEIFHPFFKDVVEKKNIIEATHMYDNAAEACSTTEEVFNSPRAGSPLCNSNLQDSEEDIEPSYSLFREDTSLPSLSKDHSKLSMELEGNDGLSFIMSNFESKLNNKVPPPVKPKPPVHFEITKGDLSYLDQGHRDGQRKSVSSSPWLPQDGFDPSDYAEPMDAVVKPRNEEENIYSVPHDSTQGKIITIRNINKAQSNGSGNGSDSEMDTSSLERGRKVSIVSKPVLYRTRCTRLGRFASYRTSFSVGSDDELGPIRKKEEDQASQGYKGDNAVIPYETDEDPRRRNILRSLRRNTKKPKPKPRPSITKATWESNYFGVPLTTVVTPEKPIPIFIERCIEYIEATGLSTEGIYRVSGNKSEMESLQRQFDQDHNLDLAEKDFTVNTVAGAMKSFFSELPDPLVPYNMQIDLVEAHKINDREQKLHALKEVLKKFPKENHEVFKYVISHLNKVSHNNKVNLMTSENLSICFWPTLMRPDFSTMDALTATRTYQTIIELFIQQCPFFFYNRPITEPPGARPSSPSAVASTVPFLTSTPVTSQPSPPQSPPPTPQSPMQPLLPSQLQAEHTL

[3] = target: T1, GTPase regulator associated with FAK (GRAF) (human); test: anti-FAK immunoprecipitation from Cp and Tp cell lysates, Western blot
p190RhoGAP (human) [4] = target: T2, p190RhoGAP (human); test: as above

binding [1]: binds
binding (p190RhoGAP (human) [2]): binds
binding [3]: binds
binding (p190RhoGAP (human) [4]): binds
Substance: focal adhesion kinase (FAK) (from UniProt Q05397 2-1052) (enzyme)
